# Laboratory results reported in the supplement of paper PMC12819154, “High-throughput peptide-centric local stability assay extends protein–ligand identification to membrane proteins, tissues and bacteria” (Nature Structural & Molecular Biology, 2025).
# Sequences of proteins named here, by UniProt entry; tags and fusion partners are left off. A change or cut given only in a name is not applied to a line headed by its entry.
# UniProt Q9JJK5: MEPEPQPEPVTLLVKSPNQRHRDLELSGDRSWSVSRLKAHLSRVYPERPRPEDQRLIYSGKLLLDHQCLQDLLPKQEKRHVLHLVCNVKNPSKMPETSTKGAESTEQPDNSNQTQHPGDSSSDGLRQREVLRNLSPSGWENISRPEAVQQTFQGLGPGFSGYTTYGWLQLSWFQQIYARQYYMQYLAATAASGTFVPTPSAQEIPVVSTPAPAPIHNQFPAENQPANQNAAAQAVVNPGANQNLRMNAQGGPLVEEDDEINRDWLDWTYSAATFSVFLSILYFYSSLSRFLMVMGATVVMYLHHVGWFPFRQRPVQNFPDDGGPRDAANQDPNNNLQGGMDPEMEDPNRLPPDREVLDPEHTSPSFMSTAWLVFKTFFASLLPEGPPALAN
# UniProt Q9JKJ9: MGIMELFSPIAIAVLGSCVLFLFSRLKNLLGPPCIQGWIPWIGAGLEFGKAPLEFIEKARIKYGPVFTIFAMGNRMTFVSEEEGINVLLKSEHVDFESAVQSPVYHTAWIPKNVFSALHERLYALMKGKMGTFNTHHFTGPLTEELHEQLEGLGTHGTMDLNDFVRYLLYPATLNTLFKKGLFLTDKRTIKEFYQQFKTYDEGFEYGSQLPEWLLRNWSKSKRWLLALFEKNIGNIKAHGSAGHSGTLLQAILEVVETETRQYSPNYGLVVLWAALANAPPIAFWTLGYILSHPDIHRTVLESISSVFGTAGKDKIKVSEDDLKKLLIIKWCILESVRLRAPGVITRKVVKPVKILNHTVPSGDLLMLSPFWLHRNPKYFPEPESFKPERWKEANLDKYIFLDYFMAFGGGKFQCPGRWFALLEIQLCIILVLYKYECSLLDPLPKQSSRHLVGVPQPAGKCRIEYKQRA
# UniProt Q9JLM4: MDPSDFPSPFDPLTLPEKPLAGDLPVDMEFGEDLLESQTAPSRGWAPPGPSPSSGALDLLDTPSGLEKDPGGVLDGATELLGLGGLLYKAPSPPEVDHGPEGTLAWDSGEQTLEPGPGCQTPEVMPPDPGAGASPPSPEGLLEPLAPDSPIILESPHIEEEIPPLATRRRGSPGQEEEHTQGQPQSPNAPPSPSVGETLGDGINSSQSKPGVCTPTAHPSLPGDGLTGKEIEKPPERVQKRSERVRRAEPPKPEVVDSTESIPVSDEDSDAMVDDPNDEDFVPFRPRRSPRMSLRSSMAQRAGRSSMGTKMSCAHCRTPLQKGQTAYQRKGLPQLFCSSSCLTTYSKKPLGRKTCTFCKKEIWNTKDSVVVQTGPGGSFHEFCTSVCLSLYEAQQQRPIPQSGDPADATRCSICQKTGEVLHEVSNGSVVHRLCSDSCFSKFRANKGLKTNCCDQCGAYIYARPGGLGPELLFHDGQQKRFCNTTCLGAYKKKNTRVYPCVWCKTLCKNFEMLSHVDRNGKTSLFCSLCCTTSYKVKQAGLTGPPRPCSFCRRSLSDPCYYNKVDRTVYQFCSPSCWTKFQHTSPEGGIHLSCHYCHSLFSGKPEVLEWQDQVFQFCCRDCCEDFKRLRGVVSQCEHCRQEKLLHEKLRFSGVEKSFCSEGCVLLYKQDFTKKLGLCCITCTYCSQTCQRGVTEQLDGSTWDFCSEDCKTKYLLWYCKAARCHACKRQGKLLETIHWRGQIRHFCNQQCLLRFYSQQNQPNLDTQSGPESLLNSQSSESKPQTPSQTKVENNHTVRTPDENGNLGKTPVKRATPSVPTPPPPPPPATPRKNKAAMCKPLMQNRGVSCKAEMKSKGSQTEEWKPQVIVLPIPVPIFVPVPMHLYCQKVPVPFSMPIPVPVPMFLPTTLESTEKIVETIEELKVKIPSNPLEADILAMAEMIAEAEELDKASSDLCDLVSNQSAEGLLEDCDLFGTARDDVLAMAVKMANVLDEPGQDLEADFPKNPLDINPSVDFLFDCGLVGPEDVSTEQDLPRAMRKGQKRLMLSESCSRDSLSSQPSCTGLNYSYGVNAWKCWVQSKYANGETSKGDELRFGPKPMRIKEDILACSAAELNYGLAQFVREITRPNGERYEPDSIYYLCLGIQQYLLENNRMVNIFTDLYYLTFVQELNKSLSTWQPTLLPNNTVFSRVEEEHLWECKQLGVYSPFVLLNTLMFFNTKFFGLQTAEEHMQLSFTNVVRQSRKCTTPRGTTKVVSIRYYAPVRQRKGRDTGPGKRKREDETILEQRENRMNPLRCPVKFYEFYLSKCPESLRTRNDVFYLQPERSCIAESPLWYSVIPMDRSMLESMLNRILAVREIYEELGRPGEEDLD
# UniProt Q9JL60: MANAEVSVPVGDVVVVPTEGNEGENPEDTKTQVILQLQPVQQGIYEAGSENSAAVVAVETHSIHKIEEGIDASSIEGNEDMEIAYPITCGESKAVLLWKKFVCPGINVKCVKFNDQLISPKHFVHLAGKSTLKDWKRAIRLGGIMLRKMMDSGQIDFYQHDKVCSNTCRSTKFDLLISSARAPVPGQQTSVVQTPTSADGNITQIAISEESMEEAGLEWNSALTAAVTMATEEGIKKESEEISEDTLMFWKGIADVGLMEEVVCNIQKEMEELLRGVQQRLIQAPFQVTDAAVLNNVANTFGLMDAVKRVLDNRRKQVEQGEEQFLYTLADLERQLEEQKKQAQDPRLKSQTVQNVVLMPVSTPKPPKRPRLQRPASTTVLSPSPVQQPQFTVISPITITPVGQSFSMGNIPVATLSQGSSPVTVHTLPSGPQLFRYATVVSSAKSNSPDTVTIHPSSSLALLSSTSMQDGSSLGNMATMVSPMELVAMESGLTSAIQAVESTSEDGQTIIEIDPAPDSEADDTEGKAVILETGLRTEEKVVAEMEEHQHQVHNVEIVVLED
# UniProt Q9JK23: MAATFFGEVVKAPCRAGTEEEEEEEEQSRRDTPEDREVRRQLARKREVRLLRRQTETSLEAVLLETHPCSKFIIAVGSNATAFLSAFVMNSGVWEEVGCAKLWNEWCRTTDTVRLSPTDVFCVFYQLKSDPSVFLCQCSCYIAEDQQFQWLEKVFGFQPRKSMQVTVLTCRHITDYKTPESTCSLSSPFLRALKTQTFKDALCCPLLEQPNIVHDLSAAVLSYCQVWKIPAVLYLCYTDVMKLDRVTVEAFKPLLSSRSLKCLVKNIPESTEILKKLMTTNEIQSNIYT
# UniProt Q9JME7, whole entry: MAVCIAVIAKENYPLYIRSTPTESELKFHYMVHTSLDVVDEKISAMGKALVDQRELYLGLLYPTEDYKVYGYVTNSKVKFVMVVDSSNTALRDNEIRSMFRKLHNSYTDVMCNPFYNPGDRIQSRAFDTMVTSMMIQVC
# UniProt Q9JI38: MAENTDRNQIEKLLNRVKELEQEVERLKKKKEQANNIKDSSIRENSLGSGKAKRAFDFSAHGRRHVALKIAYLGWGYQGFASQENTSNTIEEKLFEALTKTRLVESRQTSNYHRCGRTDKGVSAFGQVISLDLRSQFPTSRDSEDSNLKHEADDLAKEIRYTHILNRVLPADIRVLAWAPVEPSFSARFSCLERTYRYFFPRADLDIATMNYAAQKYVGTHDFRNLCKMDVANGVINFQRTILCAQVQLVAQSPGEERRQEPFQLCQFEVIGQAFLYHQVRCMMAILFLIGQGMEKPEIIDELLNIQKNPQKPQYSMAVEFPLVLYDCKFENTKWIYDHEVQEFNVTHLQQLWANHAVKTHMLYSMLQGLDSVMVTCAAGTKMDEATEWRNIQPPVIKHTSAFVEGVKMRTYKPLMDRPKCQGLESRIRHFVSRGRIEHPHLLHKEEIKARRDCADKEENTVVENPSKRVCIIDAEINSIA
# UniProt Q9ESD7: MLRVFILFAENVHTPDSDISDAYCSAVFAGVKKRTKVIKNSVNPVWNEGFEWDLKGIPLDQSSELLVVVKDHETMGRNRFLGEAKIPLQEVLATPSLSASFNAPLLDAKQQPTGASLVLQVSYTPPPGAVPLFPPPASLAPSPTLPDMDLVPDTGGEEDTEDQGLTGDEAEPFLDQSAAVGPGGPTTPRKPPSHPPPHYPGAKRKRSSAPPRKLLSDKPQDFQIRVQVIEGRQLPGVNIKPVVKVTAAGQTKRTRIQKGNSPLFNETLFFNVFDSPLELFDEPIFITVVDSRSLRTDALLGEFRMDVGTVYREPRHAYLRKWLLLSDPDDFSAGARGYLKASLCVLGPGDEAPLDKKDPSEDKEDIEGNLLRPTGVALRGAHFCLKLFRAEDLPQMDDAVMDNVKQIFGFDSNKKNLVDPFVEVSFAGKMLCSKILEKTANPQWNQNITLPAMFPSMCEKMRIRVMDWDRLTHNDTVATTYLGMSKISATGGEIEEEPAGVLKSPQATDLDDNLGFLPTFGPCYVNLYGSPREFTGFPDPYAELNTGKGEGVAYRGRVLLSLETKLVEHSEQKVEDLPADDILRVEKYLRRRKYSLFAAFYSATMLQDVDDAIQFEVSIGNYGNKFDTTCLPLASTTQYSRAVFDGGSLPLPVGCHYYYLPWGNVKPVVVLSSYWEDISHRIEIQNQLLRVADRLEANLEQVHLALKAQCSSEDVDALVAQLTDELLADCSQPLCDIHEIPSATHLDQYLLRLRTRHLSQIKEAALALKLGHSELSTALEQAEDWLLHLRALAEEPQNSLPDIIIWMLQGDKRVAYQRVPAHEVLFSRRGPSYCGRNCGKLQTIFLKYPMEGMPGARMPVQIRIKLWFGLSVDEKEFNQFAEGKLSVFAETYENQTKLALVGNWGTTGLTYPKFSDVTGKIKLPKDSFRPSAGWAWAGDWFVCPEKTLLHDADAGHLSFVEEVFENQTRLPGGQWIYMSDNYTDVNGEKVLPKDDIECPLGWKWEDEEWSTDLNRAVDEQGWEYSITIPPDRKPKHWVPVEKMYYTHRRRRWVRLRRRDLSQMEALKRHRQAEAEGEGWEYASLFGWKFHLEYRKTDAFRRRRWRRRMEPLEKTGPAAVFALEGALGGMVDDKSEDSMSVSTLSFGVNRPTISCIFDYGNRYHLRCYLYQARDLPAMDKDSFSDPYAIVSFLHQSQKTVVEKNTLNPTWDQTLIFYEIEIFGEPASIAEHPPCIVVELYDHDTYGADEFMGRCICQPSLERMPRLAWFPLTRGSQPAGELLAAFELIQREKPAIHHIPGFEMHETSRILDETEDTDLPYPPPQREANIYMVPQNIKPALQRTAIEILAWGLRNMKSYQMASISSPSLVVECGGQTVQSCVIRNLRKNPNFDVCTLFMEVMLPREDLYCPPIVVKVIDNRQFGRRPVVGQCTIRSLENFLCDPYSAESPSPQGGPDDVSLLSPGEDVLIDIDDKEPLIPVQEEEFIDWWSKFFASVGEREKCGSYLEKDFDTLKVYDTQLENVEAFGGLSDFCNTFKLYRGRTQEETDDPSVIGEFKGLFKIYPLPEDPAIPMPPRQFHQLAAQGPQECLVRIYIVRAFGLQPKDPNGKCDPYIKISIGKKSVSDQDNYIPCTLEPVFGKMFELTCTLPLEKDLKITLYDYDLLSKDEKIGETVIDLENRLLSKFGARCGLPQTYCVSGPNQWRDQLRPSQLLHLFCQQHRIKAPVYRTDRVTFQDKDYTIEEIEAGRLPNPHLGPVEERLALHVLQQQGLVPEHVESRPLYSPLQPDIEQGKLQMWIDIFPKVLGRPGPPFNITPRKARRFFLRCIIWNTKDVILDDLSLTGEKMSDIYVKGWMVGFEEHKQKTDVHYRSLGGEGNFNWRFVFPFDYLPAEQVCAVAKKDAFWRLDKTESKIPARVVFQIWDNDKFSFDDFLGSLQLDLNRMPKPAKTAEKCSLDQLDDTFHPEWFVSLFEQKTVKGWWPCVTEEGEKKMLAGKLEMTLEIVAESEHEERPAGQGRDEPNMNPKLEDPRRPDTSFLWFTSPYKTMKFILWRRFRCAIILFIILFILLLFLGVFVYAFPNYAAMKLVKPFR
# UniProt Q9JI59: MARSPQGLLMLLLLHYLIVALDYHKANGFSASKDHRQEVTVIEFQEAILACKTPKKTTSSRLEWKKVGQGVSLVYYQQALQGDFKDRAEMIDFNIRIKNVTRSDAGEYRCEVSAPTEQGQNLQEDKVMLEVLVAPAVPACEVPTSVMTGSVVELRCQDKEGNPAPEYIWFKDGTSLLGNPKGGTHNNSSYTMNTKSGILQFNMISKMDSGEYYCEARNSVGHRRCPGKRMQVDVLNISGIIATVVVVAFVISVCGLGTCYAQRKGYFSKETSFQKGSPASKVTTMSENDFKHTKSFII
# UniProt Q9JHI5: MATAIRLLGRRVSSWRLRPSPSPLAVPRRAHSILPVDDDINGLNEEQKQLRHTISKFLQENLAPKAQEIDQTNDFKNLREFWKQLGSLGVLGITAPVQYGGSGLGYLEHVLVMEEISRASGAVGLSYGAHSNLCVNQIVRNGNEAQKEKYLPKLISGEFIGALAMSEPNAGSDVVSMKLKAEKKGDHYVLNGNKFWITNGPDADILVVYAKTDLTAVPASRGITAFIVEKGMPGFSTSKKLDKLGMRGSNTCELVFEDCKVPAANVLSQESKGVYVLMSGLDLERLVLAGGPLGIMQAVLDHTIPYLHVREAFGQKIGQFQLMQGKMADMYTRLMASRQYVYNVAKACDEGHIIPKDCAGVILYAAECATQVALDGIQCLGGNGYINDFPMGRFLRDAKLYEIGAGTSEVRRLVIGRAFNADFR
# Some of the results follow. Most entries show no effect beyond the scatter of the controls.
# Compound: CN[C@@H]1C[C@H]2O[C@@](C)([C@@H]1OC)n1c3ccccc3c3c4c(c5c6ccccc6n2c5c31)C(=O)NC4 [staurosporine]
# Experiment: log2 fold change of tryptic peptide abundance, ligand vs vehicle (limited proteolysis) (log2 ratio); higher = more trypsin-susceptible (destabilized)
# Details: ligand concentration: 20 uM; sample: mouse liver crude lysate; replicate design: treated separately
row,Target,log2 fold change
1,"UniProt Q9JKB3 (peptide sequence: MQAGEIGEMK, peptide start residue: 251)",0.162
2,"UniProt Q9JLI8 (peptide sequence: KVPEKPEVR, peptide start residue: 882)",0.231
3,"UniProt Q9JMK2 (peptide sequence: SAAEPVASTPASR, peptide start residue: 343)",-0.198
4,"UniProt Q9JLN5 (peptide sequence: RAAANAGWRR, peptide start residue: 314)",0.249
5,"UniProt Q9JJ94 (peptide sequence: QIQQEEDEKQR, peptide start residue: 32)",-0.643
6,"UniProt Q9JJK5 (peptide sequence: NPSKMPETSTK, peptide start residue: 90)",0.274
7,"UniProt Q9JKJ9 (peptide sequence: NVFSALHER, peptide start residue: 113)",0.0707
8,"UniProt Q9JLM4 (peptide sequence: GVVSQCEHCR, peptide start residue: 630)",0.727
9,"UniProt Q9ERU9 (peptide sequence: KYISTYINVQERDPK, peptide start residue: 47)",0.317
10,"UniProt Q9JK83 (peptide sequence: VPGIFISR, peptide start residue: 189)",0.25
11,"UniProt Q9JL60 (peptide sequence: FVCPGINVK, peptide start residue: 108)",-0.132
12,"UniProt Q9JJA7 (peptide sequence: HSMEHVSMACVHLASK, peptide start residue: 116)",-0.304
13,"UniProt Q9JK23 (peptide sequence: NIPESTEILKK, peptide start residue: 266)",0.21
14,"UniProt Q9JMH6 (peptide sequence: VEDTVKHDWEK, peptide start residue: 204)",-0.281
15,"UniProt Q9JI57 (peptide sequence: YGEALGLNRPVLVPYK, peptide start residue: 826)",-0.0241
16,"UniProt Q9JME7 (peptide sequence: VYGYVTNSK, peptide start residue: 69)",-0.166
17,"UniProt Q9JI38 (peptide sequence: HTSAFVEGVK, peptide start residue: 399)",0.214
18,"UniProt Q9ESD7 (peptide sequence: KPPSHPPPHYPGAK, peptide start residue: 190)",0.142
19,"UniProt Q9JI59 (peptide sequence: VTTMSENDFK, peptide start residue: 282)",-0.131
20,"UniProt Q9QWK4 (peptide sequence: VEVLHQSQWSTVCK, peptide start residue: 154)",-0.562
21,"UniProt Q9JJI6 (peptide sequence: RQPLPGSESEAR, peptide start residue: 973)",-0.202
22,"UniProt Q9JHI5 (peptide sequence: IGQFQLMQGK, peptide start residue: 317)",0.106
23,"UniProt Q9JL16 (peptide sequence: YTIYDTSTDR, peptide start residue: 105)",0.4
24,"UniProt Q9ES34 (peptide sequence: LGLVETSSASPHVTHITIR, peptide start residue: 670)",-0.583
25,"UniProt Q9QX29 (peptide sequence: RHNLRSFTER, peptide start residue: 693)",5.84e-05
